# Test results taken from publication doi:10.1101/2025.07.15.665015 (bioRxiv, 2025).
# Weaker means in comparison with the reference protein, sequence or condition of that experiment.
# Molecular target: PKRΔRBD2 del100-176 (Homo sapiens) (UniProt P19525)
# Assay: single-molecule colocalization
# Settings: shorter half-life than PKR; residues 1-551
sequence,measurement,value
GGGUAUCAUGGCGGACGACCGGGGUUCGAACCCCGGAUCCGGCCGUCCGCCGUGAUACCC [mini-VA],binding result,binds more weakly
